{
  "source": "patent US7985831",
  "about": "(dated 2011)",
  "test": "peptide synthesis",
  "conditions": "whole synthesis",
  "note": "Where a sequence shows no end group, the ends are not given.",
  "data": [
    {"sequence": "MIRGLFPN", "values": [
      {"measurement": "purity (crude or final not stated)", "value": 91.0, "unit": "%"}
    ]},
    {"sequence": "VIPALSEAEAGGSPEVRSSRPAWPIW", "values": [
      {"measurement": "purity (crude or final not stated)", "value": 99.7, "unit": "%"}
    ]},
    {"sequence": "NSVKNEVEEVTFTKHTQCLGCFKSGFS", "values": [
      {"measurement": "purity (crude or final not stated)", "value": 92.3, "unit": "%"}
    ]}
  ]
}
